In publication PMC8274441:
These are yes or no findings as the source states them, for the method shown. Some results given as binding are weak or reduced against the parent protein; the word gives no strength.

Sequences of proteins named here, by UniProt entry; tags and fusion partners are left off. A change or cut given only in a name is not applied to a line headed by its entry. A line that says so, or that is headed by a name, gives the form on record, which may keep a tag or linker. Residues count along the entry.
UniProt P07355: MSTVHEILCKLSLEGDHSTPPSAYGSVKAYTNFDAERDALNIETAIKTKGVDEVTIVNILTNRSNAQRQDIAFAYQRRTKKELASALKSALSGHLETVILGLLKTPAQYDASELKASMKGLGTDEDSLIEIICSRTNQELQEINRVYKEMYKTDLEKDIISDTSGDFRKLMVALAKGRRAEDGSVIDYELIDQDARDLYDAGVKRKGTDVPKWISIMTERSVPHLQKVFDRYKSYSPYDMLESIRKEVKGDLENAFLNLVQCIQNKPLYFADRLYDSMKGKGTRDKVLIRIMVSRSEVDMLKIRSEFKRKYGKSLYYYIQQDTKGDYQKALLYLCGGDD
recombinant ANXA2 expressed in E. coli, 6x histidine tagged (P07355-2, form named): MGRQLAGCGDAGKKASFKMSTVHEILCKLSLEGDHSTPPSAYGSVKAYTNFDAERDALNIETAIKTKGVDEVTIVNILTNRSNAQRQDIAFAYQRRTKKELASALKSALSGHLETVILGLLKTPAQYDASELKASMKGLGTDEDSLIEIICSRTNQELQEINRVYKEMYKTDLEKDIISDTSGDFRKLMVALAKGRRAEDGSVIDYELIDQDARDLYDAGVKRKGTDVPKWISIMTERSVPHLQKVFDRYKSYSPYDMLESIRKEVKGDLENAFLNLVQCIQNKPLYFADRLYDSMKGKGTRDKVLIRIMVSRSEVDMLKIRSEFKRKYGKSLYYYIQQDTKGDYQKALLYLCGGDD
UniProt P0A4G2, residues 20-309: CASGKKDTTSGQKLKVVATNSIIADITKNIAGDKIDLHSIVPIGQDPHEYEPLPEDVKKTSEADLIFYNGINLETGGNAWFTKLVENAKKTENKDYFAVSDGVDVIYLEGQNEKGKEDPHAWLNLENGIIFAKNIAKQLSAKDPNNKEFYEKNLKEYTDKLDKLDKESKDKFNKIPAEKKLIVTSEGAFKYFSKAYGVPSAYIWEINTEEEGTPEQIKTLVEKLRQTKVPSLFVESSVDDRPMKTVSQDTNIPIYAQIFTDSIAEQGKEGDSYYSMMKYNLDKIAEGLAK
UniProt P02769, residues 25-607: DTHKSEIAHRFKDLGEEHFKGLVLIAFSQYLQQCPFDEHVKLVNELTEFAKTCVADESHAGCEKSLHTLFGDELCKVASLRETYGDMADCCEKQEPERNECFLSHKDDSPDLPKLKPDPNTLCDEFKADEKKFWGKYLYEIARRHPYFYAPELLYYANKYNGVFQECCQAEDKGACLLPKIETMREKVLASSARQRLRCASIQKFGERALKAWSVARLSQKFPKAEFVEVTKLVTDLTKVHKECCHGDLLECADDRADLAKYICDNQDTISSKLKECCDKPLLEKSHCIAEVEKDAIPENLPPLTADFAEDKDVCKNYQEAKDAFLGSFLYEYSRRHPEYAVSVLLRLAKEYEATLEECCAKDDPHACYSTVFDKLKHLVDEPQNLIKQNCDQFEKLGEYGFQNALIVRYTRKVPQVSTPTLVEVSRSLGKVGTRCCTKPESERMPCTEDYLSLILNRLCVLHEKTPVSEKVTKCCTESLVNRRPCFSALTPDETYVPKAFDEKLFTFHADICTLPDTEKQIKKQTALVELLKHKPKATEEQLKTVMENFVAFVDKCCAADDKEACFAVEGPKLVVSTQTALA

Legend:
[1] = target: ANXA2 expressed in and secreted from HEK293 T/17 cells, 6x histidine tagged (human) (UniProt P07355); assay: SEC; individual proteins in PBS with 2 mM DTT, incubated 1 hr at 25°C or 37°C; calibrated Superdex 200 10/300 GL at room temperature, 0.5 mL/min; both purified
[2] = target: recombinant pneumococcal surface adhesin A (PsaA), 6x histidine tagged (Streptococcus pneumoniae strain TIGR4) (UniProt P0A4G2); assay: SEC; 1:1 mixture of PsaA and ANXA2, each 0.18 mg/ml, in PBS with 2 mM DTT, incubated 1 hr at 37°C; Superdex 200 10/300 GL at room temperature, 0.5 mL/min; both purified
[3] = target: recombinant pneumococcal surface adhesin A (PsaA), 6x histidine tagged (Streptococcus pneumoniae strain TIGR4) (UniProt P0A4G2); assay: pull-down; PsaA or BSA covalently attached to AminoLink Plus agarose beads (some PsaA-beads with 5 mM manganese sulfate), incubated with ~50 µg recombinant ANXA2 or BSA at 37°C for 1 hr, washed twice with PBS; Coomassie gel and anti-ANXA2 western blot; both purified
[4] = target: human annexin A2 (ANXA2) of Detroit 562 nasopharyngeal epithelial cells (human) (UniProt P07355); assay: far-Western, overlay or dot blot; Detroit 562 whole cell lysate proteins separated by 12.5% SDS-PAGE or 2DE, transferred to PVDF, renatured by step-wise reduction of guanidine-HCl, probed with 100 µg biotinylated PsaA in PBST with 2% skim milk overnight at 4 C; streptavidin-HRP, ECL; spot identified by mass spectrometry; only the binder purified
[5] = target: recombinant ANXA2 expressed in E. coli, 6x histidine tagged (human) (UniProt P07355); assay: SEC; individual proteins in PBS with 2 mM DTT, incubated 1 hr at 25°C or 37°C; calibrated Superdex 200 10/300 GL at room temperature, 0.5 mL/min; both purified
[6] = target: recombinant pneumococcal surface adhesin A (PsaA), 6x histidine tagged (Streptococcus pneumoniae strain TIGR4) (UniProt P0A4G2); assay: SEC; both purified

Row | Substance | binding [2] | binding [3] | also measured
1 | ANXA2 expressed in and secreted from HEK293 T/17 cells, 6x histidine tagged (from UniProt P07355-2 1-357) | binds |  | binding [1]: no binding
2 | BSA (from UniProt P02769 25-607) |  | no binding (tested: ~50 µg) | 
3 | biotinylated recombinant PsaA (from UniProt P0A4G2 20-309) |  |  | binding [4]: binds
4 | recombinant ANXA2 expressed in E. coli, 6x histidine tagged (from UniProt P07355-2 1-357) | binds | binds | binding [5]: no binding
5 | recombinant pneumococcal surface adhesin A (PsaA), 6x histidine tagged (from UniProt P0A4G2 20-309) |  |  | binding [6]: no binding
